The list shows only some results of the screen, not a fair sample: its compounds were picked by chemical class. Not every dose and run of a compound is shown. T/C gives the treated animals as a percentage of the vehicle group. Some entries show no survivor count and are marked so; the dose need not have been tolerated. Schedule codes are those of the source, taken here to give the interval after Q, in days (D) or hours (H), and the number of doses after X. Where survival is the endpoint, this PubChem deposit counts one and a half times the control or more as active, and values a quarter to a half above the control carry no call in these data; other NCI protocols may use other cut-offs.
Tested on: BDF1 mice, s.c. Lewis lung carcinoma, T/C %
Test: NCI In Vivo Anticancer Drug Screen. Data for tumor model Lewis Lung Carcinoma (subcutaneous) in B6D2F1 (BDF1) mice
Protocol: The antitumor activity of compounds was measured in mice bearing transplantable tumors. Survival or tumor size were measured and the results are expressed as the measurement made in the treated group (T) divided by the measurement made in the vehicle treated control group (C). The tumor model used in this assay is Lewis Lung Carcinoma (subcutaneous) in B6D2F1 (BDF1) mice

## COCc1c(CN(CCCl)CCCl)cnc(C)c1O
T/C endpoint: mean tumor weight, dose: 0.5 mg/kg/injection, schedule: Q01DX011 (ip), vehicle: saline, evaluation day not shown, higher T/C = larger tumour
  T/C: 31 % of control [survivor count not shown]
T/C endpoint: mean tumor weight, dose: 1.0 mg/kg/injection, schedule: Q01DX011 (ip), vehicle: saline, evaluation day not shown, higher T/C = larger tumour
  T/C: 74 % of control [survivor count not shown]
T/C endpoint: mean tumor weight, dose: 2.0 mg/kg/injection, schedule: Q01DX011 (ip), vehicle: saline, evaluation day not shown, higher T/C = larger tumour
  T/C: 58 % of control [survivor count not shown]
T/C endpoint: mean tumor weight, dose: 3.8 mg/kg/injection, schedule: Q01DX011 (ip), vehicle: other, evaluation day not shown, higher T/C = larger tumour
  T/C: 42 % of control [survivor count not shown]
T/C endpoint: mean tumor weight, dose: 4.0 mg/kg/injection, schedule: Q01DX011 (ip), vehicle: saline, evaluation day not shown, higher T/C = larger tumour
  T/C: 84 % of control [survivor count not shown]
T/C endpoint: mean tumor weight, dose: 7.5 mg/kg/injection, schedule: Q01DX011 (ip), vehicle: other, evaluation day not shown, higher T/C = larger tumour
  T/C: 48 % of control [survivor count not shown]

## ClCCCCC(CCl)NCCCl (centres undefined)
T/C endpoint: mean tumor weight, dose: 14.0 mg/kg/injection, schedule: Q01DX011 (ip), vehicle: saline, evaluation day not shown, higher T/C = larger tumour
  T/C: 73 % of control [survivor count not shown]
T/C endpoint: mean tumor weight, dose: 21.0 mg/kg/injection, schedule: Q01DX011 (ip), vehicle: saline, evaluation day not shown, higher T/C = larger tumour
  T/C: 61 % of control [survivor count not shown]
T/C endpoint: mean tumor weight, dose: 31.0 mg/kg/injection, schedule: Q01DX011 (ip), vehicle: saline, evaluation day not shown, higher T/C = larger tumour
  T/C: 39 % of control [survivor count not shown]
T/C endpoint: mean tumor weight, dose: 47.0 mg/kg/injection, schedule: Q01DX011 (ip), vehicle: saline, evaluation day not shown, higher T/C = larger tumour
  T/C: 47 % of control [survivor count not shown]

## ClCCN1CCCC1CCl (centres undefined)
T/C endpoint: median survival time, dose: 375.0 micrograms/kg/injection, schedule: Q01DX009 (ip), vehicle: saline, higher T/C = longer survival
  T/C: 112 % of control [survivor count not shown]
T/C endpoint: median survival time, dose: 750.0 micrograms/kg/injection, schedule: Q01DX009 (ip), vehicle: saline, higher T/C = longer survival
  T/C: 102 % of control [survivor count not shown]
T/C endpoint: median survival time, dose: 1500.0 micrograms/kg/injection, schedule: Q01DX009 (ip), vehicle: saline, higher T/C = longer survival
  T/C: 110 % of control [survivor count not shown]
T/C endpoint: median survival time, dose: 3000.0 micrograms/kg/injection, schedule: Q01DX009 (ip), vehicle: saline, higher T/C = longer survival
  T/C: 120 % of control [survivor count not shown]

— PubChem BioAssay AID270 (DTP/NCI, 2004)
